No constants are given. Whether binding was seen depends on the method and setting. A result given as binding can be weak or reduced; the word gives no strength. Values belong to the molecule of their own block, whether it stands above or below them.
Legend:
[1] = molecular target: TaGID2-D1 (Triticum aestivum (Chinese Spring)) (UniProt A1E0V2); test: two-hybrid; TSK1 as prey (pGADT7), TaGID2-A1, -B1, -D1 as baits (pGBKT7); yeast AH109; growth on SD/-Leu-Trp-His-Ade with or without 100 μM GA3
[2] = molecular target: TaGID2-B1 (Triticum aestivum (Chinese Spring)); test: as above
[3] = molecular target: TaGID2-A1 (Triticum aestivum (Chinese Spring)); test: as above
[4] = molecular target: TaGID2-D1 (Triticum aestivum (Chinese Spring)) (UniProt A1E0V2); test: two-hybrid; RHT-1s as preys (pGADT7), TaGID2-A1, -B1, -D1 as baits (pGBKT7); yeast AH109; growth on SD/-Leu-Trp-His-Ade (with 20 μg/mL X-α-Gal in Fig 5A) with or without 100 μM GA3
[5] = molecular target: TaGID2-B1 (Triticum aestivum (Chinese Spring)); test: as above
[6] = molecular target: TaGID2-A1 (Triticum aestivum (Chinese Spring)); test: as above

- binding [1]: binds
- binding [2]: binds
- binding [3]: binds
Molecule: TSK1 (from UniProt A0A173FEH2 1-175)

- binding [4]: binds
- binding [5]: binds
- binding [6]: binds
B1: RHT-D1a (protein, UniProt Q9ST59 1-623)
chain: MKREYQDAGGSGGGGGGMGSSEDKMMVSAAAGEGEEVDELLAALGYKVRASDMADVAQKLEQLEMAMGMGGVGAGAAPDDSFATHLATDTVHYNPTDLSSWVESMLSELNAPPPPLPPAPQLNASTSSTVTGSGGYFDLPPSVDSSSSIYALRPIPSPAGATAPADLSADSVRDPKRMRTGGSSTSSSSSSSSSLGGGARSSVVEAAPPVAAAANATPALPVVVVDTQEAGIRLVHALLACAEAVQQENLSAAEALVKQIPLLAASQGGAMRKVAAYFGEALARRVFRFRPQPDSSLLDAAFADLLHAHFYESCPYLKFAHFTANQAILEAFAGCRRVHVVDFGIKQGMQWPALLQALALRPGGPPSFRLTGVGPPQPDETDALQQVGWKLAQFAHTIRVDFQYRGLVAATLADLEPFMLQPEGEEDPNEEPEVIAVNSVFEMHRLLAQPGALEKVLGTVRAVRPRIVTVVEQEANHNSGTFLDRFTESLHYYSTMFDSLEGGSSGGGPSEVSSGAAAAPAAAGTDQVMSEVYLGRQICNVVACEGAERTERHETLGQWRNRLGNAGFETVHLGSNAYKQASTLLALFAGGDGYKVEEKEGCLTLGWHTRPLIATSAWRLAGP

— paper PMC4915692
